Assay results as given in paper PMC8110583.
Results are given in words; binding and its absence hold for the method and conditions named. In cells and extracts the contact can be indirect. Some results given as binding are weak or reduced against the parent protein; the word gives no strength.

Biological target: TDP-43 (human (endogenous in GPiNs, G401, T47D, A375)) (UniProt Q13148)
Test: co-IP; biological replicates of the TDP-43 IP from GPiN lysate, western blots with interactor-specific antibodies

binding: binds
B1: MATR3 (protein, UniProt P43243 1-847)
chain: MSKSFQQSSLSRDSQGHGRDLSAAGIGLLAAATQSLSMPASLGRMNQGTARLASLMNLGMSSSLNQQGAHSALSSASTSSHNLQSIFNIGSRGPLPLSSQHRGDADQASNILASFGLSARDLDELSRYPEDKITPENLPQILLQLKRRRTEEGPTLSYGRDGRSATREPPYRVPRDDWEEKRHFRRDSFDDRGPSLNPVLDYDHGSRSQESGYYDRMDYEDDRLRDGERCRDDSFFGETSHNYHKFDSEYERMGRGPGPLQERSLFEKKRGAPPSSNIEDFHGLLPKGYPHLCSICDLPVHSNKEWSQHINGASHSRRCQLLLEIYPEWNPDNDTGHTMGDPFMLQQSTNPAPGILGPPPPSFHLGGPAVGPRGNLGAGNGNLQGPRHMQKGRVETSRVVHIMDFQRGKNLRYQLLQLVEPFGVISNHLILNKINEAFIEMATTEDAQAAVDYYTTTPALVFGKPVRVHLSQKYKRIKKPEGKPDQKFDQKQELGRVIHLSNLPHSGYSDSAVLKLAEPYGKIKNYILMRMKSQAFIEMETREDAMAMVDHCLKKALWFQGRCVKVDLSEKYKKLVLRIPNRGIDLLKKDKSRKRSYSPDGKESPSDKKSKTDGSQKTESSTEGKEQEEKSGEDGEKDTKDDQTEQEPNMLLESEDELLVDEEEAAALLESGSSVGDETDLANLGDVASDGKKEPSDKAVKKDGSASAAAKKKLKKVDKIEELDQENEAALENGIKNEENTEPGAESSENADDPNKDTSENADGQSDENKDDYTIPDEYRIGPYQPNVPVGIDYVIPKTGFYCKLCSLFYTNEEVAKNTHCSSLPHYQKLKKFLNKLAEERRQKKET
